Results are given in words; binding and its absence hold for the method and conditions named. Binding seen in cells or lysates may run through a third protein. Some binding calls cover weakened binding; strength is not graded here.

Protein sequences, listed by entry. Tags and fused reporters are not part of them.
UniProt P11387: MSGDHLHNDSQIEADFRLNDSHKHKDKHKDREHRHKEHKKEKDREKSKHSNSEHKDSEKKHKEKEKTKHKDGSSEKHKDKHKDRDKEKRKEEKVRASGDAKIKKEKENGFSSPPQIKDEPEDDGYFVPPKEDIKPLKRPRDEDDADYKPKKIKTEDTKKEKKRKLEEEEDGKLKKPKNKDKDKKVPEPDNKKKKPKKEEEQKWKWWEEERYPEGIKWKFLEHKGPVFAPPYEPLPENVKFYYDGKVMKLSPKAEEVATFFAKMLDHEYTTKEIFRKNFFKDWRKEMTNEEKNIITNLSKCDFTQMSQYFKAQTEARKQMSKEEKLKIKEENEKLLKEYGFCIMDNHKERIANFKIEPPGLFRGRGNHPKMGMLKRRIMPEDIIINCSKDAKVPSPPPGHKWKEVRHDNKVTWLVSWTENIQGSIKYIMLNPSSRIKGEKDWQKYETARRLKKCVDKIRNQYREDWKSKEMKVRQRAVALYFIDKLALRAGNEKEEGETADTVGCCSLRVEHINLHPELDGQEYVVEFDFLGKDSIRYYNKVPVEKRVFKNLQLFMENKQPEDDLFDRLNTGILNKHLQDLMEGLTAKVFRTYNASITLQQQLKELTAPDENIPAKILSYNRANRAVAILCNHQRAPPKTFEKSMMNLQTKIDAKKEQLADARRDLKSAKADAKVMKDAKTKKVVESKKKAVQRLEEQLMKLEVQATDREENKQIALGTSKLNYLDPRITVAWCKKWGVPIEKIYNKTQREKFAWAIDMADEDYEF
UniProt P11388: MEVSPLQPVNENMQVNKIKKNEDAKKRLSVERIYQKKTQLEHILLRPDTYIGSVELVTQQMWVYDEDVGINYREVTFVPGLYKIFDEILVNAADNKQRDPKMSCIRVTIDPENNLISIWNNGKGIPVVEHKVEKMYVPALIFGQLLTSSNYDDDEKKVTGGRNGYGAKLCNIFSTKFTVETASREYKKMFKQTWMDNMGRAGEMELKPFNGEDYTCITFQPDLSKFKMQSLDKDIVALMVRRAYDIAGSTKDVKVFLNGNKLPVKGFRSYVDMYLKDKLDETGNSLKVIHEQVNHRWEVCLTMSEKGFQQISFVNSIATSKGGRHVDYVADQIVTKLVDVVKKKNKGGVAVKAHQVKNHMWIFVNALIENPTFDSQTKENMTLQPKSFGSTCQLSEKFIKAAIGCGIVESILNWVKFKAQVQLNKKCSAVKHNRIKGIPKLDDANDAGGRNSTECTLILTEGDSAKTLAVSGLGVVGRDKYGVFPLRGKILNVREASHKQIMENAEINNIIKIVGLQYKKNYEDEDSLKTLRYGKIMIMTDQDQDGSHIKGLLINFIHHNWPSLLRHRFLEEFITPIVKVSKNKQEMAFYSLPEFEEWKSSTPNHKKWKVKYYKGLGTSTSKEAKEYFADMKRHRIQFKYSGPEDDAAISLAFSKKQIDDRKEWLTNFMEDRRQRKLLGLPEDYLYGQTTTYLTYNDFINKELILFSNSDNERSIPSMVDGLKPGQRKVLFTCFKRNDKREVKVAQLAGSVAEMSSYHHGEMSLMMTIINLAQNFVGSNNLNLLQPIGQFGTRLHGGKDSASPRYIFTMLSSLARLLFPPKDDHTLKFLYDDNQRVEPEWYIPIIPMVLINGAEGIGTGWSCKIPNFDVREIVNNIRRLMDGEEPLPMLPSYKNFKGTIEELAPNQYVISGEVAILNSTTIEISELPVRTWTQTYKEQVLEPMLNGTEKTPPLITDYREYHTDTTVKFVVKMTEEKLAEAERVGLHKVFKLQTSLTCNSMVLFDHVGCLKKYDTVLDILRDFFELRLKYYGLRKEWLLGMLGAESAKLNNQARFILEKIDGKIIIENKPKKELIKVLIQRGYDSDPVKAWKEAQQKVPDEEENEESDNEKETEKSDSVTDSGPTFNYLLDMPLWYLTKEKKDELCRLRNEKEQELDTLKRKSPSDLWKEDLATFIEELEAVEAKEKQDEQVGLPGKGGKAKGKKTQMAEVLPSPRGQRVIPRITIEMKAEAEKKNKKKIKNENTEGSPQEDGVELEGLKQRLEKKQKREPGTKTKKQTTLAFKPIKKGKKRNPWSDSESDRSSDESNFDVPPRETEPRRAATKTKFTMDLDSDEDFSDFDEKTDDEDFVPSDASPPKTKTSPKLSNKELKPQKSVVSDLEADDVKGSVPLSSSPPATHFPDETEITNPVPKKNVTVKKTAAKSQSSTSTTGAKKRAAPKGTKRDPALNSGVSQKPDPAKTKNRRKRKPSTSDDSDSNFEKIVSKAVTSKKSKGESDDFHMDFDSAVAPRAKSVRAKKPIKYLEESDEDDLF
UniProt P39748: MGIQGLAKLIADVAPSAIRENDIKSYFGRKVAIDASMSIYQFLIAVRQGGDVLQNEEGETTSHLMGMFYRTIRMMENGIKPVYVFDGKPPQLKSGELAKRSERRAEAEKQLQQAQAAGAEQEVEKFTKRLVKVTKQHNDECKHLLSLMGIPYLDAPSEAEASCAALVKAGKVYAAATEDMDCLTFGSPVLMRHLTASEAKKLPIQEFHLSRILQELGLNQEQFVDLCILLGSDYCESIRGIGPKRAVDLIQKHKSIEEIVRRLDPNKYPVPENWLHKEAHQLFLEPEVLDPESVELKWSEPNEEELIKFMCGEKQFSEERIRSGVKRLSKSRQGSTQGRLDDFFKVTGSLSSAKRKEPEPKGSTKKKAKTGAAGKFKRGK

For 2 substances, binding results are on record in publication doi:10.1101/2023.10.19.563118.

For test [1], the target named is topoisomerase I (TOP1) (human (endogenous in U2OS)) (UniProt P11387). Put plainly: proximity ligation.
Test [2] addresses topoisomerase II alpha (TOP2α) (human (endogenous in U2OS)) (UniProt P11388). Put plainly: proximity ligation.

Turning to “FEN1-FLAG WT (from UniProt P39748 1-380)”, the binding entry in test [1] and in test [2] was “binds” throughout.

As to “flap endonuclease 1 (FEN1) (from UniProt P39748 1-380)”, the binding entry in test [1] and in test [2] was “binds” each time.
